Laboratory results from US20080269163A1, “Methods and Compositions for Protecting Cells from Ultrasound-Mediated Cytolysis” (priority 2004, published 2008).

Test system: carbon-centered radicals
Experiment: ESR spin trapping with DBNBS after sonolysis of cell suspension
Conditions: HGP 5 mM
Experimental: Tertiary carbon-centered radicals are labeled 1, secondary carbon-centered radicals are labeled 2. Primary carbon-centered radicals are labeled 3. Conditions of sonolysis: frequency=1.057 MHz; time=15 seconds, power=60 W, argon-saturated solutions, temperature=25° C.
Electron Spin Resonance (i.e., ESR or EPR) Measurements: cell suspensions (1 ml) with or without HGP (5 mM) were sonicated in the presence of DBNBS (3 mg/ml), which is effective at spin trapping carbon-centered radicals. Prior to sonolysis, the sample solution containing DBNBS was placed in the pyrex tube and sealed from the atmosphere using a “suba seal” (supplied by Aldrich). The sample was bubbled with argon gas through a needle for 5 minutes. The needle was raised to just above the sample solution, allowing argon gas to pass over the top of the cell suspension during sonolysis (1.057 MHz, p=60 W for 15 seconds). Purging the suspension with argon removes oxygen, thereby avoiding the formation of organic peroxyl radicals that cannot be spin trapped by DBNBS. Immediately following sonolysis, the sample was transferred into an ESR flat quartz cell. The ESR spectra were recorded on a Varian E-9X-band spectrometer with 100 kHz modulation frequency. The typical instrument settings were: modulation amplitude 1 G, time constant 0.128 s, scan speed 0.83 G s^−1.

For `CCCCCCO[C@@H]1O[C@H](CO)[C@@H](O)[C@H](O)[C@H]1O` [HGP, hexyl-β-D-Glucopyranoside], the “carbon-centered radical yield relative to sonolysis in the absence of HGP” value was “two times higher” and the “total carbon-centered radical yield” value (1.057 MHz, 60 W, 15 seconds, argon, DBNBS 3 mg/ml) was 1.6 µM.
